Assay results: patent publication US20240270732A1, “RECEPTOR-INTERACTING PROTEIN INHIBITOR, PREPARATION METHOD THEREFOR, AND USE THEREOF” (CHENGDU BIOBEL BIOTECHNOLOGY CO., LTD, priority 2021, published 2024)
At least one structure is not confirmed: it was looked up by name or label, or the drawing left a doubt.

System: DSS-induced inflammatory bowel disease model
Test: DSS-induced inflammatory bowel disease model in mice
Type: in vivo, C57BL/6J male mice
Details: 50 mg/kg/day, 3% DSS for 5 days

## CN1C(=O)[C@@H](NC(=O)c2ncn(Cc3ccccc3)n2)COc2ccc(C#CCN3CCN(CC#Cc4ccc5c(c4)N(C)C(=O)[C@@H](NC(=O)c4ncn(Cc6ccccc6)n4)CO5)CC3)cc21 [Compound I-30]
HE staining, FIG. 5
  pathological score of colon tissue: better than that of the model group and the positive control group
Colon collected day 9, FIG. 4
  colon length: greater than that of the model group and the positive control group
mice, FIG. 3
  disease index (DAI) score: much lower than that of the model group and the positive control group
mice, FIGS. 1 and 2
  weight loss: much smaller weight loss compared to the model group
